Patent US20230374068A1, “COMPOSITIONS AND METHODS FOR TREATING A DISEASE” (RAMOT AT TEL AVIV UNIVERSITY LTD., priority 2021, published 2023)
Results are given in words; binding and its absence hold for the method and conditions named. Binding seen in cells or lysates may run through a third protein. Some entries that bind do so weakly or less than the wild type. Tags and fused reporters may be left off the sequences shown.

T1: T7-RILP-L2 (pEF-T7-RILP-L2) (mouse) (UniProt Q99LE1)
T1 sequence (looked up): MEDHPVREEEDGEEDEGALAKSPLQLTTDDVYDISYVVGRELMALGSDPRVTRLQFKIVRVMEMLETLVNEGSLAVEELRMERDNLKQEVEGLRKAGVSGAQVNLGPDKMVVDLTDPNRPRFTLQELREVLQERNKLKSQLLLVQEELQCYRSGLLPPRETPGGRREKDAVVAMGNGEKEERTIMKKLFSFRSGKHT

T2: T7-RILP-L1 (pEF-T7-RILP-L1) (mouse, UniProt Q9JJC6 1-406)
T2 construct: The pEF-T7 plasmid was 'prepared as previously described'; also called T7-tagged RILP-L1; RILP-like 1
T2 sequence (looked up): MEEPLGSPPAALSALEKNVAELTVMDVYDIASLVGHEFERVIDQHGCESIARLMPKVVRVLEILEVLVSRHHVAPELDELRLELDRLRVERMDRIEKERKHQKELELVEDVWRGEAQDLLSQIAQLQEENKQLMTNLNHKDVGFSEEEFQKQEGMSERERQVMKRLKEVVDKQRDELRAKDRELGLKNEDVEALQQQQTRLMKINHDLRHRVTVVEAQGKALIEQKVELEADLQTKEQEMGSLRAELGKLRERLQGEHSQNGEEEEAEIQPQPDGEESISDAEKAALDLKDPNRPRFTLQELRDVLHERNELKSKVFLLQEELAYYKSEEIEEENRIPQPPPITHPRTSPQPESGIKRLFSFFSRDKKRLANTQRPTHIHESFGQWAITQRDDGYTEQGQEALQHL


Key:
[1] = target: T1, T7-RILP-L2 (pEF-T7-RILP-L2) (mouse); assay: co-immunoprecipitation of GFP- and T7-tagged forms from RBL cell lysates
[2] = target: T1, T7-RILP-L2 (pEF-T7-RILP-L2) (mouse); assay: co-immunoprecipitation from co-transfected RBL cell lysates, IP anti-GFP, blot anti-T7
[3] = target: T2, T7-RILP-L1 (pEF-T7-RILP-L1); assay: as above
Method: FIGS. 1A, 1B show the results of immunoprecipitations in which cell lysates derived from the rat mast cell line RBL-2H3, herein referred to as RBL cells, that were co-transfected with 17.5 μg of pEGFP plasmid encoding either RILP, RILP-L1 or RILP-L2 and 17.5 μg of pEF plasmid encoding either T7-RILP, T7-RILP-L1 or T7-RILP-L2, as indicated, were subjected to immunoprecipitation with rabbit polyclonal antibodies directed against GFP. FIGS. 1C, 1D show the results of immunoprecipitations in which the RBL cell lysates described above were subjected to immunoprecipitation with mouse monoclonal antibodies directed against the T7 epitope. Immune complexes were then analyzed by SDS-PAGE and immunoblotting with mouse monoclonal anti T7 antibodies, followed by reprobing with polyclonal anti GFP antibodies (FIGS. 1A, 1B), or with polyclonal anti GFP antibodies followed by reprobing with monoclonal anti T7 antibodies (FIGS. 1C, 1D), as indicated. Input=10% of total protein.
RBL cell lysates (500 μg) prepared in buffer A (50 mM Hepes pH 7.4, 250 mM NaCl, 1 mM MgCl₂, 1% Triton X-100, protease inhibitor mixture, 1 mM PMSF, 2 mM Na₃VO₄) were incubated overnight at 4° C. with either rabbit polyclonal anti-GFP antibodies (2 μg) or mouse monoclonal anti-T7 antibodies (1 μg). […] Proteins were resolved by SDS-PAGE and analyzed by immunoblotting with the desired antibodies.

[4] = target: T2, T7-RILP-L1 (pEF-T7-RILP-L1); assay: co-immunoprecipitation of GFP- and T7-tagged forms from RBL cell lysates

binding [1]	binding [2]	binding [3]	binding [4]	Binder
binds	binds			GFP-RILP-L2 (mouse RILP-like 2 in pEGFP-C1) (protein, UniProt Q99LE1 1-197, looked up, not shown: large carriers) MEDHPVREEEDGEEDEGALAKSPLQLTTDDVYDISYVVGRELMALGSDPRVTRLQFKIVRVMEMLETLVNEGSLAVEELRMERDNLKQEVEGLRKAGVSGAQVNLGPDKMVVDLTDPNRPRFTLQELREVLQERNKLKSQLLLVQEELQCYRSGLLPPRETPGGRREKDAVVAMGNGEKEERTIMKKLFSFRSGKHT
		binds	binds	GFP-RILP-L1 (mouse RILP-like 1 in pEGFP-C1) (protein, UniProt Q9JJC6 1-406, looked up, not shown: large carriers) MEEPLGSPPAALSALEKNVAELTVMDVYDIASLVGHEFERVIDQHGCESIARLMPKVVRVLEILEVLVSRHHVAPELDELRLELDRLRVERMDRIEKERKHQKELELVEDVWRGEAQDLLSQIAQLQEENKQLMTNLNHKDVGFSEEEFQKQEGMSERERQVMKRLKEVVDKQRDELRAKDRELGLKNEDVEALQQQQTRLMKINHDLRHRVTVVEAQGKALIEQKVELEADLQTKEQEMGSLRAELGKLRERLQGEHSQNGEEEEAEIQPQPDGEESISDAEKAALDLKDPNRPRFTLQELRDVLHERNELKSKVFLLQEELAYYKSEEIEEENRIPQPPPITHPRTSPQPESGIKRLFSFFSRDKKRLANTQRPTHIHESFGQWAITQRDDGYTEQGQEALQHL
